Our source for the binding values is publication PMC11791078, “RECQ4-MUS81 interaction contributes to telomere maintenance with implications to Rothmund-Thomson syndrome” (Nature Communications, 2025).

No constants are given. Whether binding was seen depends on the method and setting. Some entries that bind do so weakly or less than the wild type. Tags and fused reporters may be left off the sequences shown.

Common to all, as to experiment: pull-down; purified GST-MUS81-EME1, GST-MUS81 or GST-MUS81 fragments (5 µg) incubated with MBP-tagged RECQ4 fragments (5 µg) and Glutathione Sepharose 4 Fast Flow beads in 1X K buffer with 150 mM KCl, 0.01% NP40, 1 mM DTT, 30 min, 4 °C; flow-through and bound fractions on SDS-PAGE, Coomassie blue; both purified
One assay deals with T1, GST-MUS81-EME1 complex (UniProt Q96NY9 1-551; Q96AY2 1-570).
T1 construct: MUS81 subunit of the complex encoded by pGEX-6P-1-MUS81-HisEME1; EME1 subunit of the complex encoded by pGEX-6P-1-MUS81-HisEME1; Plasmid was a gift from Dr. Stephen West and Dr. Curtis Harris; the construct is not described further; source: E. coli Rossetta (DE3) pLysS, purified (Glutathione Sepharose, Heparin, MonoS)
T1 sequence (looked up) 1: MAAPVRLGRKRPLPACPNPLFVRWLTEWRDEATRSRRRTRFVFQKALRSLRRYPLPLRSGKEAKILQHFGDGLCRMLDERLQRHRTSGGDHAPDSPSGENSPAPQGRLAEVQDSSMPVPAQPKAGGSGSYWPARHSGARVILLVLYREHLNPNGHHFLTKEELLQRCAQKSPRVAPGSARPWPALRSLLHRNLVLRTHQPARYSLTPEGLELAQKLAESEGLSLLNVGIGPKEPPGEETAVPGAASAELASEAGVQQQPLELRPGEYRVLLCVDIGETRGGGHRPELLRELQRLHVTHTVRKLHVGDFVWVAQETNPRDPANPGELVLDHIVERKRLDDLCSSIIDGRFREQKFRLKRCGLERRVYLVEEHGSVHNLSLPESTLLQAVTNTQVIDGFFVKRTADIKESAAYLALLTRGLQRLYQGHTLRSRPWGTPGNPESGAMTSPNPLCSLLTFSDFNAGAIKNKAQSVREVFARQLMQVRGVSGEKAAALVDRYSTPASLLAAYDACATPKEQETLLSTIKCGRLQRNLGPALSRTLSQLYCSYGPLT
T1 sequence (looked up) 2: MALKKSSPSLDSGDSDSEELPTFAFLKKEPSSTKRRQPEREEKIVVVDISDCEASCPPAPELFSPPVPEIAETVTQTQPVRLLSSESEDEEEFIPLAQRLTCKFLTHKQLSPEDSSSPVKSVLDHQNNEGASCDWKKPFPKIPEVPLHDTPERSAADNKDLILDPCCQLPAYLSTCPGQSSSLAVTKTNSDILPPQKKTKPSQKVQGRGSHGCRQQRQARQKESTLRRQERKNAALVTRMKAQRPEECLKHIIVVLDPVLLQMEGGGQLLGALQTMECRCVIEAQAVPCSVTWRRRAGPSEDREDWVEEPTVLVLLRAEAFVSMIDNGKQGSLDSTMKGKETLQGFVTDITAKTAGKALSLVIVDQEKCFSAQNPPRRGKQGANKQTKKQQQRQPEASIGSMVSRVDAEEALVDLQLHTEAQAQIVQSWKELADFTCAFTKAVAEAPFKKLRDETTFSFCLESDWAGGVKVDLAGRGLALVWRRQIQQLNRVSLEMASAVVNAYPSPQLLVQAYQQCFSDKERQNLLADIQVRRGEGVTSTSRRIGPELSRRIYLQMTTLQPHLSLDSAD

Another assay concerns the target T2, GST-MUS81 (UniProt Q96NY9).
T2 sequence: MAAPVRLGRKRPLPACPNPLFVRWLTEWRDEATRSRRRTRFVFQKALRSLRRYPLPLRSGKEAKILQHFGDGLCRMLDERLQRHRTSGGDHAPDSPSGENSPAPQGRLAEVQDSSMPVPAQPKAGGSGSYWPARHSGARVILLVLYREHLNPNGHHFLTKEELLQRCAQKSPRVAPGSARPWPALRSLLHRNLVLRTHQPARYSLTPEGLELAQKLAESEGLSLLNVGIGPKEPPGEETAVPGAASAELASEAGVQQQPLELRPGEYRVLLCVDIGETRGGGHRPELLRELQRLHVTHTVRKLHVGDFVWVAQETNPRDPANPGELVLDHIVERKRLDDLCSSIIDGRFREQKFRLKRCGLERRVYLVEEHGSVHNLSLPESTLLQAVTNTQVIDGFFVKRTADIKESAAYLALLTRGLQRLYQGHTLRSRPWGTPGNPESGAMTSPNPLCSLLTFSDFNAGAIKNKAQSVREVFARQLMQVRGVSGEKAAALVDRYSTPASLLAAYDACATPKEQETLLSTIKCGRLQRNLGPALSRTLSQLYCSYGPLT

The next assay addresses T3, GST-MUS81 (1-278) (UniProt Q96NY9).
T3 sequence: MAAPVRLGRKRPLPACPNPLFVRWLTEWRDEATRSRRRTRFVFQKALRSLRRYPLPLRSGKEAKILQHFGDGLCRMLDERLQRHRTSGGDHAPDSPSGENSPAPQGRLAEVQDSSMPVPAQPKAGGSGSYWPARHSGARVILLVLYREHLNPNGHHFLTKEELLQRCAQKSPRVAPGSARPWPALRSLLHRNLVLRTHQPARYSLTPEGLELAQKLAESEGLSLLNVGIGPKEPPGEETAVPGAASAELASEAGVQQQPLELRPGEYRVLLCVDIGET

B1: MBP-RECQ4 (455-1208) (domain or fragment, UniProt O94761 455-1208)
chain: SLGPSGQLAETPAEVFQALEQLGHQAFRPGQERAVMRILSGISTLLVLPTGAGKSLCYQLPALLYSRRSPCLTLVVSPLLSLMDDQVSGLPPCLKAACIHSGMTRKQRESVLQKIRAAQVHVLMLTPEALVGAGGLPPAAQLPPVAFACIDEAHCLSQWSHNFRPCYLRVCKVLRERMGVHCFLGLTATATRRTASDVAQHLAVAEEPDLHGPAPVPTNLHLSVSMDRDTDQALLTLLQGKRFQNLDSIIIYCNRREDTERIAALLRTCLHAAWVPGSGGRAPKTTAEAYHAGMCSRERRRVQRAFMQGQLRVVVATVAFGMGLDRPDVRAVLHLGLPPSFESYVQAVGRAGRDGQPAHCHLFLQPQGEDLRELRRHVHADSTDFLAVKRLVQRVFPACTCTCTRPPSEQEGAVGGERPVPKYPPQEAEQLSHQAAPGPRRVCMGHERALPIQLTVQALDMPEEAIETLLCYLELHPHHWLELLATTYTHCRLNCPGGPAQLQALAHRCPPLAVCLAQQLPEDPGQGSSSVEFDMVKLVDSMGWELASVRRALCQLQWDHEPRTGVRRGTGVLVEFSELAFHLRSPGDLTAEEKDQICDFLYGRVQARERQALARLRRTFQAFHSVAFPSCGPCLEQQDEERSTRLKDLLGRYFEEEEGQEPGGMEDAQGPEPGQARLQDWEDQVRCDIRQFLSLRPEEKFSSRAVARIFHGIGSPCYPAQVYGQDRRFWRKYLHLSFHALVGLATEELLQVAR
With B1, the binding entry with GST-MUS81-EME1 complex was “no binding (tested: 5 µg each)”.

B2: MBP-RECQ4 (1-400) Δ3 (domain or fragment, UniProt O94761 1-400)
chain: MERLRDVRERLQAWERAFRRQRGRRPSQDDVEAAPEETRALYREYRTLKRTTGQAGGGLRSSESLPAAAEEAPEPRCWGPHLNRAATKSPQSTPGRSRQGSVPDYGQRLKANLKGTLQAGPALGRRPWPLGRASSKASTPKPPGTGPVPSFAEKVSDEPPQLPEPQPRPGRLQHLQASLSQRLGSLDPGWLQRCHSEVPDFLGAPKACRPDLGSEESQLLIPGESAVLGPGAGSQGPEASAFQEVSIRVGSPQPSSSGGEKRRWNEEPWESPAQVQQESSQAGPPSEGAGAVAVEEDPPGEPVQAQPPQPCSSPSNPRYHGLSPSSQARAGKAEGTAPLHIFPRLARHDRGNLNMKQKHYVRGRALRSRLLRKQAWKQKWRKKGECFGGGGATVTTK
For B2, in the assay with GST-MUS81-EME1 complex, the binding result is reported as “no binding (tested: 5 µg each)”.

B3: MBP-RECQ4 (1-322) (domain or fragment, UniProt O94761 1-322)
chain: MERLRDVRERLQAWERAFRRQRGRRPSQDDVEAAPEETRALYREYRTLKRTTGQAGGGLRSSESLPAAAEEAPEPRCWGPHLNRAATKSPQSTPGRSRQGSVPDYGQRLKANLKGTLQAGPALGRRPWPLGRASSKASTPKPPGTGPVPSFAEKVSDEPPQLPEPQPRPGRLQHLQASLSQRLGSLDPGWLQRCHSEVPDFLGAPKACRPDLGSEESQLLIPGESAVLGPGAGSQGPEASAFQEVSIRVGSPQPSSSGGEKRRWNEEPWESPAQVQQESSQAGPPSEGAGAVAVEEDPPGEPVQAQPPQPCSSPSNPRYHGL
Consider B3, for which the binding entry with GST-MUS81-EME1 complex was “no binding (tested: 5 µg each)”.

B4: RECQ4 (construct of the pull-down with GST-MUS81 and GST-MUS81 fragments) (protein, UniProt O94761 1-1208)
chain: MERLRDVRERLQAWERAFRRQRGRRPSQDDVEAAPEETRALYREYRTLKRTTGQAGGGLRSSESLPAAAEEAPEPRCWGPHLNRAATKSPQSTPGRSRQGSVPDYGQRLKANLKGTLQAGPALGRRPWPLGRASSKASTPKPPGTGPVPSFAEKVSDEPPQLPEPQPRPGRLQHLQASLSQRLGSLDPGWLQRCHSEVPDFLGAPKACRPDLGSEESQLLIPGESAVLGPGAGSQGPEASAFQEVSIRVGSPQPSSSGGEKRRWNEEPWESPAQVQQESSQAGPPSEGAGAVAVEEDPPGEPVQAQPPQPCSSPSNPRYHGLSPSSQARAGKAEGTAPLHIFPRLARHDRGNYVRLNMKQKHYVRGRALRSRLLRKQAWKQKWRKKGECFGGGGATVTTKESCFLNEQFDHWAAQCPRPASEEDTDAVGPEPLVPSPQPVPEVPSLDPTVLPLYSLGPSGQLAETPAEVFQALEQLGHQAFRPGQERAVMRILSGISTLLVLPTGAGKSLCYQLPALLYSRRSPCLTLVVSPLLSLMDDQVSGLPPCLKAACIHSGMTRKQRESVLQKIRAAQVHVLMLTPEALVGAGGLPPAAQLPPVAFACIDEAHCLSQWSHNFRPCYLRVCKVLRERMGVHCFLGLTATATRRTASDVAQHLAVAEEPDLHGPAPVPTNLHLSVSMDRDTDQALLTLLQGKRFQNLDSIIIYCNRREDTERIAALLRTCLHAAWVPGSGGRAPKTTAEAYHAGMCSRERRRVQRAFMQGQLRVVVATVAFGMGLDRPDVRAVLHLGLPPSFESYVQAVGRAGRDGQPAHCHLFLQPQGEDLRELRRHVHADSTDFLAVKRLVQRVFPACTCTCTRPPSEQEGAVGGERPVPKYPPQEAEQLSHQAAPGPRRVCMGHERALPIQLTVQALDMPEEAIETLLCYLELHPHHWLELLATTYTHCRLNCPGGPAQLQALAHRCPPLAVCLAQQLPEDPGQGSSSVEFDMVKLVDSMGWELASVRRALCQLQWDHEPRTGVRRGTGVLVEFSELAFHLRSPGDLTAEEKDQICDFLYGRVQARERQALARLRRTFQAFHSVAFPSCGPCLEQQDEERSTRLKDLLGRYFEEEEGQEPGGMEDAQGPEPGQARLQDWEDQVRCDIRQFLSLRPEEKFSSRAVARIFHGIGSPCYPAQVYGQDRRFWRKYLHLSFHALVGLATEELLQVAR
For the molecule B4, the binding result with GST-MUS81 and with GST-MUS81 (1-278) was “binds” throughout.
